# Percent effect of library compounds

By UniProt entry, the sequences of proteins in these tests, tags left out.
UniProt P9WFT3, whole entry: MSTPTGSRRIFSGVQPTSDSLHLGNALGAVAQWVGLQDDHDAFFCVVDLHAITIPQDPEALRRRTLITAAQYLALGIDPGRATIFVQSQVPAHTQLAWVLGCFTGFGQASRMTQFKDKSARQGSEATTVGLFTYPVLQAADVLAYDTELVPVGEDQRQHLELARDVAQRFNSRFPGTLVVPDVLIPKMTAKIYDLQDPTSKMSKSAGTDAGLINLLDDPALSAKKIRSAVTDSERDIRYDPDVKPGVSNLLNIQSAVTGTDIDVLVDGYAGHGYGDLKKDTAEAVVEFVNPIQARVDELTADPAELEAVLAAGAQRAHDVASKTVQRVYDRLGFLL
UniProt I6X8D2, whole entry: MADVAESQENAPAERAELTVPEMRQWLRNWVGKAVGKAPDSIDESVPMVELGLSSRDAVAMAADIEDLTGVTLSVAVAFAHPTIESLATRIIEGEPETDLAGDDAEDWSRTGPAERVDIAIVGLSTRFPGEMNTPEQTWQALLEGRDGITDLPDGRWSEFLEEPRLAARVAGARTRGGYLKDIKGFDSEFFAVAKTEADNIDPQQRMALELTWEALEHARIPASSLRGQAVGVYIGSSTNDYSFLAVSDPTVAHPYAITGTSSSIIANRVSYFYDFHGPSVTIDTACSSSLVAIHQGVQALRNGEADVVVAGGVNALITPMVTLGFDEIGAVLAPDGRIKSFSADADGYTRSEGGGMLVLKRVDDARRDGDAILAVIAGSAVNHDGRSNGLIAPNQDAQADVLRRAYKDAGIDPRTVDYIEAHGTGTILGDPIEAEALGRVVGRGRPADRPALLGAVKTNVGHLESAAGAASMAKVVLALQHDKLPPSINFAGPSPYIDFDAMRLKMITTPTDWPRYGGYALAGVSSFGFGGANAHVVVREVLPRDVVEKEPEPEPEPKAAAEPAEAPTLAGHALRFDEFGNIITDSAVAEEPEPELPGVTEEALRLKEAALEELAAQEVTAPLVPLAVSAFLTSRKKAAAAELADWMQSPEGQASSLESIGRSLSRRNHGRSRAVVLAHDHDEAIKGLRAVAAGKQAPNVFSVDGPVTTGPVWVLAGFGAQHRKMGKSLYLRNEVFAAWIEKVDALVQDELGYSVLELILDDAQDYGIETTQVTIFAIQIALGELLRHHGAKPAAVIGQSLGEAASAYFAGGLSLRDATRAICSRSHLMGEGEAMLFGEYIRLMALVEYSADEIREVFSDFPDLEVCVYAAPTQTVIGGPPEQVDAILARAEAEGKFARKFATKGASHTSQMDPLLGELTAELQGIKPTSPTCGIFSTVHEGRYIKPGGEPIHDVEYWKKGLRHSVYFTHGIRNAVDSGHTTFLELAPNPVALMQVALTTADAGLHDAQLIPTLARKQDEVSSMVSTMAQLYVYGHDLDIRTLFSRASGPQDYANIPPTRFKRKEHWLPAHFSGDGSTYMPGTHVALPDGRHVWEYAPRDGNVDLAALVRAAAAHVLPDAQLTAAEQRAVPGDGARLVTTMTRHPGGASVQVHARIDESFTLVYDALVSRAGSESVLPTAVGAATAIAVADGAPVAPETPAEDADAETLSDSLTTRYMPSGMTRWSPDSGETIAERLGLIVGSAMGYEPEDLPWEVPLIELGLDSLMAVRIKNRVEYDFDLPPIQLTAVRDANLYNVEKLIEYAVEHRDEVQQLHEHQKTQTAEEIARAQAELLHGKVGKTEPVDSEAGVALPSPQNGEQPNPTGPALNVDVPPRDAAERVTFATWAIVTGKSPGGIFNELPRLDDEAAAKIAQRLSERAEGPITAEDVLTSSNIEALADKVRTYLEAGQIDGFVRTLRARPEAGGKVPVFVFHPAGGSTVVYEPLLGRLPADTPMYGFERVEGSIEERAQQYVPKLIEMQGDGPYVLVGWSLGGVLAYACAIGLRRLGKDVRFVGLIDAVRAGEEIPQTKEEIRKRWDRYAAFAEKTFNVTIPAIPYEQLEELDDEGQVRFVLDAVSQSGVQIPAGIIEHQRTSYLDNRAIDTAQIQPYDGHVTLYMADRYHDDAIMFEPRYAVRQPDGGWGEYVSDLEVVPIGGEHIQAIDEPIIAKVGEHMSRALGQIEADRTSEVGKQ

MtTrpRS: 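Enzyme assay of tryptophanyl-tRNA synthetase; the read-out is not stated. Target: Tryptophan-tRNA ligase, Mycobacterium tuberculosis (UniProt P9WFT3). Compounds at 10 µM. Higher most likely means stronger inhibition; the record gives no direction and few retests gave an IC50. Size under these conditions: about 65,000 compounds, about 64 of them at 50% or above in at least one test.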
Pks13 thioesterase: 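Enzyme assay of the thioesterase domain of polyketide synthase 13; the read-out is not stated. Target: Polyketide synthase Pks13, Mycobacterium tuberculosis (UniProt I6X8D2). Tested at 30 µM. Higher reads as stronger inhibition (inferred from which compounds were picked for retests). Size under these conditions: about 67,000 compounds, about 300 of them at 50% or above in at least one test.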

Results are given as percent effect. The controls that fix the scale are not given in the record; negative values are as filed. This is an unselected part of the compounds tested.

CC(C)N(CCO)C(=O)C1CCC(=O)N(CCc2ccc(Cl)cc2)C1 (stereo not drawn) gave MtTrpRS: -4.863%; Pks13 thioesterase: -22.85%. With Cc1nc2sccn2c1CN(CCCN(C)C)Cc1ccco1 the screen gave MtTrpRS: -4.485%; Pks13 thioesterase: 7.117%. With Nc1nccc(C2CN(Cc3ccc(-c4ccccc4C(=O)O)o3)C2)n1 the screen gave MtTrpRS: 1.187%; Pks13 thioesterase: -0.593%. For COCC(=O)N1CCCC(COc2ccccc2C)C1 (stereo not drawn) the result was MtTrpRS: -1.371%; Pks13 thioesterase: -15.63%. With COCC(C)N(Cc1ccccc1OC)C(=O)c1cc(C)[nH]c(=O)c1 (stereo not drawn) the screen gave MtTrpRS: -1.89%; Pks13 thioesterase: -23.76%.

Result for Cc1nc2c(s1)C(N(C)C(=O)NCCCC(C)(C)CO)CCC2 (stereo not drawn) was MtTrpRS: -4.421%; Pks13 thioesterase: -9.488%. Result for COCCC(=O)N1CCCC1c1csc(Nc2ncccn2)n1 (stereo not drawn) was Pks13 thioesterase: 10.91%. For c1ccc(-c2ncc(CN3CCC4(CCNCC4)C3)cn2)cc1 the result was MtTrpRS: -3.818%; Pks13 thioesterase: -10.09%. Result for CCN1CCC2(CCC1=O)CN(c1ccnc(SC)n1)CCN2C (stereo not drawn) was MtTrpRS: 3.375%; Pks13 thioesterase: -8.835%. Result for CCn1ncc2c1CN(C(=O)Cc1ccccn1)CC2COC (stereo not drawn) was MtTrpRS: 0.9856%; Pks13 thioesterase: 3.808%.

With Fc1ccccc1Cc1noc(CN2CCCC(CN3CCCC3)C2)n1 (stereo not drawn) the screen gave MtTrpRS: -0.2506%; Pks13 thioesterase: -8.754%. For N[C@H]1CN(S(=O)(=O)N2CCCC2)C[C@@H]1c1ccccc1 the result was MtTrpRS: 0.1837%; Pks13 thioesterase: -45.71%. With CC(=O)N1CCC(c2nccnc2C)CC1 the screen gave MtTrpRS: -10.09%. O=S(=O)(C1CC1)N1C[C@H]2CCC[C@@]2(COCc2ccccn2)C1 gave MtTrpRS: 4.149%; Pks13 thioesterase: 7.921%. CC(NCc1cc(O)c2cccc(F)c2n1)c1ccccc1O (stereo not drawn) read MtTrpRS: -5.057%; Pks13 thioesterase: -33.82%.

For Cc1noc(C)c1CN1C[C@H]2CN(Cc3cccc(F)c3)C[C@H]2C1 the result was Pks13 thioesterase: -3.905%. For CCc1nc(CN2CCCN(C(=O)C3CCC3)CC2)cs1 the result was MtTrpRS: -8.739%; Pks13 thioesterase: 2.047%. For CCCc1cc(N2CCC(NC3CCS(=O)(=O)C3)CC2)nc(C)n1 (stereo not drawn) the result was MtTrpRS: -2.46%; Pks13 thioesterase: -18.15%. For Fc1ccc(Nc2ccc(C3CCN(Cc4ncc[nH]4)CC3)nc2)nc1 the result was MtTrpRS: 0.7542%; Pks13 thioesterase: 8.772%. With CCCn1c(C)c(CC(=O)NC(C)(C)CO)c2c1CC(C)(C)CC2=O the screen gave MtTrpRS: 1.227%; Pks13 thioesterase: -34.06%.

For O=C1Nc2ccccc2C1C1CCN(C(=O)C2CC2)CC1 (stereo not drawn) the result was MtTrpRS: 8.165%; Pks13 thioesterase: -20.99%. Cc1cccc2c1C(=O)NC(c1cnc(C3CCC3)s1)N2 (stereo not drawn) read MtTrpRS: -1.039%; Pks13 thioesterase: 46.95%. For CS(=O)(=O)N1CC2(CCN(C(=O)c3csnn3)CC2)c2ccccc21 the result was MtTrpRS: -0.4361%; Pks13 thioesterase: -26.44%. Cc1cc(C2CCC2)nc(NCC(C)(C)N2CCOCC2)n1 read MtTrpRS: 0.5376%; Pks13 thioesterase: -18.75%. With CCC(C)N(Cc1c[nH]c(C)n1)Cc1ccccc1Cl (stereo not drawn) the screen gave MtTrpRS: -3.965%; Pks13 thioesterase: -41.56%.

CC(Cn1cccn1)NCc1cnc(N2CCCC2)nc1 (stereo not drawn) read MtTrpRS: 3.127%; Pks13 thioesterase: -4.353%. With COc1ccc(F)cc1CSCC(=O)N(C)C1CC1 the screen gave MtTrpRS: -3.767%; Pks13 thioesterase: -20.42%. OCCOc1cc(F)ccc1NCc1ccc(F)c(F)c1 gave MtTrpRS: 0.3137%; Pks13 thioesterase: -22.33%. For COc1ccnc(N2CCN(C(=O)CCc3nccs3)CC2)n1 the result was MtTrpRS: -1.78%; Pks13 thioesterase: -12.98%. CN(C)c1cccc(C(=O)Nc2ccn(CCc3ccncc3)n2)c1 gave MtTrpRS: -0.9524%; Pks13 thioesterase: -17.89%.

CC(C)(NC(=O)c1scnc1Cl)c1ccccc1 read MtTrpRS: 2.922%; Pks13 thioesterase: 3.558%. Result for O=C1CCC2(CCN(Cc3ccsc3)CC2)N1Cc1ccccc1 was MtTrpRS: -3.924%; Pks13 thioesterase: -17.57%. CN(C)C(=O)N1CCN(C(=O)CCc2ccccc2)[C@H]2CS(=O)(=O)C[C@H]21 read MtTrpRS: -2.09%; Pks13 thioesterase: -6.9%. For CC(NC(=O)CN1CCN(Cc2ccc(Br)s2)CC1)c1ccccc1 (stereo not drawn) the result was MtTrpRS: 2.523%; Pks13 thioesterase: -35.57%. O=C(C1CCOCC1)N1CCO[C@H]2[C@H](Oc3cccnc3)CC[C@@H]21 read MtTrpRS: -0.4504%; Pks13 thioesterase: -12.21%.

CN(C)CCn1c2c(ccc1=O)CCN(C(=O)c1cccs1)CC2 read MtTrpRS: -5.172%; Pks13 thioesterase: -35.23%. Result for O=C(NCC1(O)COCCN(Cc2cccc(O)c2)C1)c1cscn1 (stereo not drawn) was MtTrpRS: -2.514%; Pks13 thioesterase: 5.168%. Result for Cc1ccc(CN(C)C(=O)c2cc3c(c(S(N)(=O)=O)c2)CCC3)o1 was MtTrpRS: -4.47%; Pks13 thioesterase: -28.1%. CN1CC(=O)N(c2ccccc2)CC12CCN(Cc1nccs1)C2 (stereo not drawn) read MtTrpRS: 1.994%; Pks13 thioesterase: -2.03%. For CCc1cnc(N2CCN(Cc3ccon3)CC2)s1 the result was MtTrpRS: 0.3027%; Pks13 thioesterase: -42.13%.

Some entries from above, unchanged:

Fc1ccccc1Cc1noc(CN2CCCC(CN3CCCC3)C2)n1 (stereo not drawn) gave MtTrpRS: -0.2506%; Pks13 thioesterase: -8.754%.
CN(C)CCn1c2c(ccc1=O)CCN(C(=O)c1cccs1)CC2 gave MtTrpRS: -5.172%; Pks13 thioesterase: -35.23%.
CC(C)(NC(=O)c1scnc1Cl)c1ccccc1 gave MtTrpRS: 2.922%; Pks13 thioesterase: 3.558%.

The values are deposited in ChEMBL (CHEMBL3988442, “University of Dundee, Small-Polar-MMV Screening Library” (2021)).